# Counter-ions that a name gives are not always drawn. This is one part of the list. The calls rarely recur for the same compound in another form.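 Kinases were expressed as nanoluciferase fusions in K562 cells and luminescence was read every 4 h between 2 and 18 h as percent of control, DMSO set to 100% and a positive control to 0%. A time point counts as decreased when the signal drops significantly (2 sigma). The hit call is the authors' own, does not follow from the count of time points alone, and its rule is not shown.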
# Amino acid sequences for entries named in this document (tags omitted). A change or cut given only in a name is not applied to a line headed by its entry.
# UniProt O15530: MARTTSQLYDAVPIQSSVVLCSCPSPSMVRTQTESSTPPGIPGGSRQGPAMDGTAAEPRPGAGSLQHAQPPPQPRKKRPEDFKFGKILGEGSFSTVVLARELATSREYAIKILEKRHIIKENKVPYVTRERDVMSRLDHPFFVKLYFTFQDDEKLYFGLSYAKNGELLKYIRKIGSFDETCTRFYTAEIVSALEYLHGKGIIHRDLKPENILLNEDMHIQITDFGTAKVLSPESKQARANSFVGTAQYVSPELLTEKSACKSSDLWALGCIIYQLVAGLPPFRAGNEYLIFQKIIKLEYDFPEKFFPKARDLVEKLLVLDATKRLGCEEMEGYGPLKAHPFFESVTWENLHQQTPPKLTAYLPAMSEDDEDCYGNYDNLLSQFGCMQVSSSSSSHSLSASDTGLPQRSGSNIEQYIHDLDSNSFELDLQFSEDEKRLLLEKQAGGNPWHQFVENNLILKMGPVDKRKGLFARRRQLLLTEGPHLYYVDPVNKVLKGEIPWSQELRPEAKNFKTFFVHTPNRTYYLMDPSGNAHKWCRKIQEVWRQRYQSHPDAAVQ
# UniProt Q9UBF8: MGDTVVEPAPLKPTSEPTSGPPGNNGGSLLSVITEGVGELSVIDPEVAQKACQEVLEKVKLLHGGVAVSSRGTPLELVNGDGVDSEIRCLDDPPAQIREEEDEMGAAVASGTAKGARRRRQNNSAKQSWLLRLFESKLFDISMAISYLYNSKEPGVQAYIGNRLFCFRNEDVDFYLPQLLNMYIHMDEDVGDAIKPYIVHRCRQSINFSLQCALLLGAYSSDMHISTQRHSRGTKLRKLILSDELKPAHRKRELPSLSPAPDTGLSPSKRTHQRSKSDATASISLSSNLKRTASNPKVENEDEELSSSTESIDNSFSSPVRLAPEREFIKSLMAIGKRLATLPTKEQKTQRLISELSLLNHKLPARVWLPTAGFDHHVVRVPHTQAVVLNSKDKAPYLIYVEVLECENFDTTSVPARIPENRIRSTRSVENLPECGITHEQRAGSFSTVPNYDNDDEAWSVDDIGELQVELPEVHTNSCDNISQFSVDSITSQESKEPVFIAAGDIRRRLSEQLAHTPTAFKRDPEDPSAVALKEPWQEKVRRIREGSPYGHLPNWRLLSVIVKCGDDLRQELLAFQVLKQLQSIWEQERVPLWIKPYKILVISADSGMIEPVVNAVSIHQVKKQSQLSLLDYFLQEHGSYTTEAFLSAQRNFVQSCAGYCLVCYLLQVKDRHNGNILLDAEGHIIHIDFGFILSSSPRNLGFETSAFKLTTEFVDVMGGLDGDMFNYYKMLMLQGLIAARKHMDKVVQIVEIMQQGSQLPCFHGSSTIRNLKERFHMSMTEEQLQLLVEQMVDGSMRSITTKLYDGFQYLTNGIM
# UniProt P53350, whole entry: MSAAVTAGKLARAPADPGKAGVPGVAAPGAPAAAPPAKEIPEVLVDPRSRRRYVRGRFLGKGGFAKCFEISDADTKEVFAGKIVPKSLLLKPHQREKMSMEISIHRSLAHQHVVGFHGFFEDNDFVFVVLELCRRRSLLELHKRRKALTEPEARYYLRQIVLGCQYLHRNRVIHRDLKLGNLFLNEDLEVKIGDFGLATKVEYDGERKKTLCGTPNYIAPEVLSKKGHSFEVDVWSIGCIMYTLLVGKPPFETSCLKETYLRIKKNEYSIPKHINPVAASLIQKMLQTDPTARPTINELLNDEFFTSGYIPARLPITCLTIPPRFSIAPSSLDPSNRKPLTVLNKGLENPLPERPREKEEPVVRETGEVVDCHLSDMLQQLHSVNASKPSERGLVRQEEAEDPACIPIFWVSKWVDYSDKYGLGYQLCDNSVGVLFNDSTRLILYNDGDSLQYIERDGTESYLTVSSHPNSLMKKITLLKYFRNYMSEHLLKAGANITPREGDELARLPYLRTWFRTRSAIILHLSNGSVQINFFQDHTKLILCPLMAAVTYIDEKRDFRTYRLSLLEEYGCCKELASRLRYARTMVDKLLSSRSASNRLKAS
# UniProt Q13131: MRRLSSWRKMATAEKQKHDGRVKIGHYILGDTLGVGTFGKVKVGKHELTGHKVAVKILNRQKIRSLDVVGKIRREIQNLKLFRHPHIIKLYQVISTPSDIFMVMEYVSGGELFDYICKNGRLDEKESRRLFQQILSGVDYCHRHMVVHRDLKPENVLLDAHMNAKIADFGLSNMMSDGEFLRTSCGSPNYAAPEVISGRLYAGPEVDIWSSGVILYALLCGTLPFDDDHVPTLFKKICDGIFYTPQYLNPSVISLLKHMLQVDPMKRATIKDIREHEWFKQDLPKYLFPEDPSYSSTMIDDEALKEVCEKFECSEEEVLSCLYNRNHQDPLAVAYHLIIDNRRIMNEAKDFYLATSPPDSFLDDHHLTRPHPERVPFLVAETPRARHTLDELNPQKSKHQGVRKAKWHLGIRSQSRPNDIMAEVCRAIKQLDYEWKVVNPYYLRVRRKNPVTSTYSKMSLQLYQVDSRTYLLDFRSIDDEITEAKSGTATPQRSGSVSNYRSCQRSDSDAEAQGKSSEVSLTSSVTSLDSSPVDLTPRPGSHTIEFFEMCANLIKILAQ
# UniProt Q05397, whole entry, looked up: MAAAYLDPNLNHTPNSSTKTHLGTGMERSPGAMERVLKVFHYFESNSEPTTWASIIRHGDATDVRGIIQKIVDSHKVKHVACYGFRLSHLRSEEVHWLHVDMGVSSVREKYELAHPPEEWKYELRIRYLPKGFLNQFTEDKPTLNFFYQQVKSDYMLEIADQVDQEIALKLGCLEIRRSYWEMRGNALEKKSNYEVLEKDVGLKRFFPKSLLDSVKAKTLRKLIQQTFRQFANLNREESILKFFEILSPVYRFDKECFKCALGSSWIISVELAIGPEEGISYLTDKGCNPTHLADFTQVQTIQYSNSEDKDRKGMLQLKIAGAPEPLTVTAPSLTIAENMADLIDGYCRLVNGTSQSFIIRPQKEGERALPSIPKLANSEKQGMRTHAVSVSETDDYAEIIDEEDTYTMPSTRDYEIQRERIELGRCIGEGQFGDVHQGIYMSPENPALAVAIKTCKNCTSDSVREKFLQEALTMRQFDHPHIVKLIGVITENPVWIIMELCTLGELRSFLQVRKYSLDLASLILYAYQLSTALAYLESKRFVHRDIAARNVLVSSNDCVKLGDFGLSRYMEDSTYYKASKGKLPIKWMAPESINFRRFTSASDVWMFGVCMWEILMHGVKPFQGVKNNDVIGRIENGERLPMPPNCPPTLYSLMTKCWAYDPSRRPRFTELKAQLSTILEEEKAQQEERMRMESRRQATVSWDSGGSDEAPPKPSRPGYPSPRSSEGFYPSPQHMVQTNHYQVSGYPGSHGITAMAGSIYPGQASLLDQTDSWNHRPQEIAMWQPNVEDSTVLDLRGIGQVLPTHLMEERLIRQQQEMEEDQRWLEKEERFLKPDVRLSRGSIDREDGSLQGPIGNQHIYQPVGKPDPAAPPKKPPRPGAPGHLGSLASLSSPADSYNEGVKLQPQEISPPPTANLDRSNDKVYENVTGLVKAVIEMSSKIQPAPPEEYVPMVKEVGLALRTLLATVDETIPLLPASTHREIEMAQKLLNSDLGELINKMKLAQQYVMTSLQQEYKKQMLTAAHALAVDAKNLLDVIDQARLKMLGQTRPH
# UniProt Q14289, whole entry, looked up: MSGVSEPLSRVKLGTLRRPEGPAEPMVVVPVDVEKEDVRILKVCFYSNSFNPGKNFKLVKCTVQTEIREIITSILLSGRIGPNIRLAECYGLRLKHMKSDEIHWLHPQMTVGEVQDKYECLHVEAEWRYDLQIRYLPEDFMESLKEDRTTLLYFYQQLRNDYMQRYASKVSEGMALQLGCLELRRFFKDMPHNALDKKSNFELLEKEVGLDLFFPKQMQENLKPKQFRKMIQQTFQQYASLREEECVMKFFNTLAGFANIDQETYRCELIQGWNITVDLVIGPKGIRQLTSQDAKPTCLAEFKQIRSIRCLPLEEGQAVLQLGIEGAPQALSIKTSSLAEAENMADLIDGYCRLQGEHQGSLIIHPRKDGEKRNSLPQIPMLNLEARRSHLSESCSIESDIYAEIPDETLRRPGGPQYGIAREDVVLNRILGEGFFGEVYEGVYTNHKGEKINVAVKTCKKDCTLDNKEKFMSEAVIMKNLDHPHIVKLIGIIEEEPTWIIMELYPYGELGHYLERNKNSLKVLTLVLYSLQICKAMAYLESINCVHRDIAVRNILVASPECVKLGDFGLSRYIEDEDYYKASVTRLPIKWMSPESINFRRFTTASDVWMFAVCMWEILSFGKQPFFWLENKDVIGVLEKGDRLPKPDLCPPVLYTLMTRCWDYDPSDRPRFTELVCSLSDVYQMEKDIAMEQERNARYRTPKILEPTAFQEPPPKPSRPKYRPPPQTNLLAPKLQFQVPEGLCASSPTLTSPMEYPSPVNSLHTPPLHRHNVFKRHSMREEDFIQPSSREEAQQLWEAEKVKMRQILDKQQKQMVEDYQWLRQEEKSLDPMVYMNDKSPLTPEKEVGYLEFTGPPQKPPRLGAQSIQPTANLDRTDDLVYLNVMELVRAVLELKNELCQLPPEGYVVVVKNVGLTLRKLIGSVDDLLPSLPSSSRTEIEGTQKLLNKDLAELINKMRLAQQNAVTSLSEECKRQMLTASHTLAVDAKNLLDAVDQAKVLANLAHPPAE
# Tests used:
# Experiment in all cases: kinase-Nluc reporter destabilization hit call (1 = scored as downregulated) (binary); higher = compound decreases kinase abundance
# Details in all cases: K562; 2-18 h
# PDPK1 = PDPK1 (UniProt O15530)
# PIK4CA = PIK4CA (UniProt P42356)
# PIK4CB = PIK4CB (UniProt Q9UBF8)
# PLK1 = PLK1 (UniProt P53350)
# PRKAA1 = PRKAA1 (UniProt Q13131)
# PRKCA = PRKCA (UniProt P17252)
# PTK2 = PTK2 (UniProt Q05397)
# PTK2B = PTK2B (UniProt Q14289)
# RAF1 = RAF1 (UniProt P04049)
# [1] = molecular target: RAF1_S257L (clone: RAF1_mut) (UniProt P04049)
Structure (SMILES),kinase-Nluc reporter destabilization hit call (PDPK1),kinase-Nluc reporter destabilization hit call (PIK4CA),kinase-Nluc reporter destabilization hit call (PIK4CB),kinase-Nluc reporter destabilization hit call (PLK1),kinase-Nluc reporter destabilization hit call (PRKAA1),kinase-Nluc reporter destabilization hit call (PRKCA),kinase-Nluc reporter destabilization hit call (PTK2),kinase-Nluc reporter destabilization hit call (PTK2B),kinase-Nluc reporter destabilization hit call (RAF1),kinase-Nluc reporter destabilization hit call [1]
Cc1cccc(-c2[nH]ncc2-c2ccnc3ccccc23)n1 (10 µM),inactive: 0,inactive: 0,inactive: 0,inactive: 0,inactive: 0,inactive: 0,inactive: 0,inactive: 0,inactive: 0,inactive: 0
N#Cc1ccc(-c2cnc3[nH]cc(NC(=O)c4cccnc4)c3c2)cc1 (10 µM),inactive: 0,inactive: 0,inactive: 0,inactive: 0,inactive: 0,inactive: 0,active: 1,inactive: 0,inactive: 0,inactive: 0
CC(O)(C#Cc1ccc2c(c1)N(c1nc(N)ncc1Cl)CC2)c1nccs1 (stereo not given) (2.5 µM),inactive: 0,inactive: 0,inactive: 0,inactive: 0,inactive: 0,inactive: 0,inactive: 0,inactive: 0,inactive: 0,inactive: 0
COc1cc2ncnc(Nc3cccc(I)c3)c2cc1OC (2.5 µM),inactive: 0,inactive: 0,inactive: 0,inactive: 0,inactive: 0,inactive: 0,inactive: 0,inactive: 0,inactive: 0,inactive: 0
CC(C)=CCC/C(C)=C/CC/C(C)=C/C=C/C(C)=C/C(=O)O [Peretinoin] (10 µM),inactive: 0,inactive: 0,inactive: 0,inactive: 0,inactive: 0,inactive: 0,inactive: 0,inactive: 0,inactive: 0,inactive: 0
CN1CCN(c2cc(-c3ccncc3)c(-c3ccc4ccccc4c3)nn2)CC1 (10 µM),inactive: 0,inactive: 0,inactive: 0,inactive: 0,inactive: 0,inactive: 0,inactive: 0,inactive: 0,inactive: 0,inactive: 0
C=CC(=O)Nc1cc(Nc2nccc(-c3cn(C)c4ccccc34)n2)c(OC)cc1OCCN(C)C [Rezivertinib] (2.5 µM),inactive: 0,inactive: 0,inactive: 0,inactive: 0,inactive: 0,inactive: 0,inactive: 0,inactive: 0,inactive: 0,inactive: 0
O=C(Nc1cccnc1)c1cc(-c2ccnc(F)c2)ccc1OCc1ccccc1 (10 µM),inactive: 0,inactive: 0,inactive: 0,inactive: 0,inactive: 0,inactive: 0,inactive: 0,inactive: 0,inactive: 0,inactive: 0
COc1ccc(S(=O)(=O)Nc2cc(-c3c(O)ccc4ccccc34)c(O)c3ccccc23)cc1 (10 µM),inactive: 0,inactive: 0,inactive: 0,inactive: 0,inactive: 0,inactive: 0,inactive: 0,inactive: 0,inactive: 0,inactive: 0
Cn1c(CNc2cccc(C(=O)NCc3ccccc3C(F)(F)F)c2)nnc1-c1ccncc1 (10 µM),inactive: 0,inactive: 0,inactive: 0,inactive: 0,inactive: 0,inactive: 0,inactive: 0,inactive: 0,inactive: 0,inactive: 0
C=CC(=O)N1CCC[C@@H](n2nc(-c3ccc(Oc4ccccc4)cc3)c3c(N)n[nH]c(=O)c32)C1 [BTK inhibitor 17] (10 µM),inactive: 0,inactive: 0,inactive: 0,inactive: 0,inactive: 0,inactive: 0,inactive: 0,inactive: 0,inactive: 0,inactive: 0
CCN(CC)CCOc1ccc(Nc2nc(-c3ccccc3NC(=O)CCN3CCN(C)CC3)nc3ccccc23)cc1 (2.5 µM),inactive: 0,inactive: 0,inactive: 0,inactive: 0,inactive: 0,inactive: 0,inactive: 0,inactive: 0,inactive: 0,inactive: 0
NC[C@@](O)(c1ccc(Cl)cc1)c1ccc(-c2cn[nH]c2)cc1 (10 µM),inactive: 0,inactive: 0,inactive: 0,inactive: 0,inactive: 0,inactive: 0,inactive: 0,inactive: 0,inactive: 0,inactive: 0
Cc1nn(C)cc1-c1nc2c(N3CCN(Cc4ccc(Cl)cc4)CC3)c(Cl)cnc2[nH]1 (10 µM),inactive: 0,inactive: 0,inactive: 0,inactive: 0,inactive: 0,inactive: 0,inactive: 0,inactive: 0,inactive: 0,inactive: 0
CC(C)[C@H](CO)Nc1nc(Nc2cccc(Cl)c2)c2ncn(C(C)C)c2n1 [Purvalanol A] (10 µM),inactive: 0,inactive: 0,inactive: 0,inactive: 0,inactive: 0,inactive: 0,inactive: 0,inactive: 0,inactive: 0,inactive: 0
Cc1cc(C(=O)NOCCO)c(Nc2ccc(I)cc2F)n(C)c1=O (10 µM),inactive: 0,inactive: 0,inactive: 0,inactive: 0,inactive: 0,inactive: 0,inactive: 0,inactive: 0,inactive: 0,inactive: 0
Cn1cc(-c2cc(Oc3cc(F)c(NC(=O)C4(C(=O)Nc5ccccc5)CC4)cc3F)ccn2)cn1 (2.5 µM),inactive: 0,inactive: 0,inactive: 0,inactive: 0,inactive: 0,inactive: 0,inactive: 0,inactive: 0,inactive: 0,inactive: 0

Structure (SMILES),kinase-Nluc reporter destabilization hit call (PDPK1),kinase-Nluc reporter destabilization hit call (PIK4CA),kinase-Nluc reporter destabilization hit call (PIK4CB),kinase-Nluc reporter destabilization hit call (PLK1),kinase-Nluc reporter destabilization hit call (PRKAA1),kinase-Nluc reporter destabilization hit call (PRKCA),kinase-Nluc reporter destabilization hit call (PTK2),kinase-Nluc reporter destabilization hit call (PTK2B),kinase-Nluc reporter destabilization hit call (RAF1),kinase-Nluc reporter destabilization hit call [1]
CCC(=O)Nc1cccc(Oc2nc(Nc3ccc(N4CCN(C)CC4)cc3OC)ncc2Cl)c1 (10 µM),inactive: 0,inactive: 0,inactive: 0,inactive: 0,inactive: 0,inactive: 0,inactive: 0,inactive: 0,inactive: 0,inactive: 0
CC1(N)CCN(c2cccnc2NC(=O)c2nc(-c3ncccc3C(F)(F)F)cnc2N)CC1 [Darovasertib] (10 µM),inactive: 0,inactive: 0,inactive: 0,inactive: 0,inactive: 0,inactive: 0,inactive: 0,inactive: 0,inactive: 0,inactive: 0
Cc1ccc(-n2nc(C(C)(C)C)cc2NC(=O)Nc2ccc(OCCN3CCOCC3)cc2)cc1 (10 µM),inactive: 0,inactive: 0,inactive: 0,inactive: 0,inactive: 0,inactive: 0,inactive: 0,inactive: 0,inactive: 0,inactive: 0
COc1cc2c(cc1Nc1ncc(C(N)=O)c(Nc3c(F)cccc3C(F)(F)F)n1)CN(C)CC2 (2.5 µM),inactive: 0,inactive: 0,inactive: 0,inactive: 0,inactive: 0,inactive: 0,inactive: 0,inactive: 0,inactive: 0,inactive: 0
CCCCCC(=O)N[C@@H](Cc1ccc(O)cc1)C(=O)OC (10 µM),inactive: 0,inactive: 0,inactive: 0,inactive: 0,inactive: 0,inactive: 0,inactive: 0,inactive: 0,inactive: 0,inactive: 0
CNC(=O)CNc1cnc2ccc(-c3ccc(OC)c(OC)c3)cc2n1 (10 µM),inactive: 0,inactive: 0,inactive: 0,inactive: 0,inactive: 0,inactive: 0,inactive: 0,inactive: 0,inactive: 0,inactive: 0
COCCOCCc1c(C)c2cc(OC)c(O)c(C=O)c2oc1=O (10 µM),inactive: 0,inactive: 0,inactive: 0,inactive: 0,inactive: 0,inactive: 0,inactive: 0,inactive: 0,inactive: 0,inactive: 0
O=C1NC(=O)/C(=C\c2c[nH]c(=O)c(-c3ccc(N4CCNCC4)nc3)c2)S1 [Protein kinase inhibitors 1 hydrochloride] (10 µM),inactive: 0,inactive: 0,inactive: 0,inactive: 0,inactive: 0,inactive: 0,inactive: 0,inactive: 0,inactive: 0,inactive: 0
CCCCCc1ccc(/C=C/[C@H](O)[C@@H](CO)NC)cc1 [SK1-I (hydrochloride)] (10 µM),inactive: 0,inactive: 0,inactive: 0,inactive: 0,inactive: 0,inactive: 0,inactive: 0,inactive: 0,inactive: 0,inactive: 0
COc1cc2c(cc1O)C[C@H]1c3cc(O)c(OC)cc3CC[N@@+]1(C)C2 [Phellodendrine] (10 µM),inactive: 0,inactive: 0,inactive: 0,inactive: 0,inactive: 0,inactive: 0,inactive: 0,inactive: 0,inactive: 0,inactive: 0
COc1ccc2c3n(c(=NC(=O)c4cccnc4)nc2c1OC)CCN3 (2 µM),inactive: 0,inactive: 0,inactive: 0,inactive: 0,inactive: 0,inactive: 0,inactive: 0,inactive: 0,inactive: 0,inactive: 0
COc1cc2cc(Oc3ccc4ccc(=O)oc4c3)c(=O)oc2cc1O [Daphnoretin] (10 µM),inactive: 0,inactive: 0,inactive: 0,inactive: 0,inactive: 0,inactive: 0,inactive: 0,inactive: 0,inactive: 0,inactive: 0
COc1cc(-c2cc(-c3ccc(N4CCNCC4)cc3)cnc2C)cc(OC)c1OC (10 µM),inactive: 0,inactive: 0,inactive: 0,inactive: 0,inactive: 0,inactive: 0,inactive: 0,inactive: 0,inactive: 0,inactive: 0
C=CC(=O)Nc1cc(Nc2nccc(-c3cn(C)c4ccccc34)n2)c(OC)cc1N(C)CCNC [AZ7550 Mesylate] (2.5 µM),inactive: 0,inactive: 0,inactive: 0,inactive: 0,inactive: 0,inactive: 0,inactive: 0,inactive: 0,inactive: 0,inactive: 0
Nc1nccc(-c2c(-c3ccc(F)cc3)ncn2C2CCCCC2)n1 (10 µM),inactive: 0,inactive: 0,inactive: 0,inactive: 0,inactive: 0,inactive: 0,inactive: 0,inactive: 0,inactive: 0,inactive: 0
Nc1ncc(C(=O)NC2CN(C(=O)C3CC3)C2)c2ccc(-c3cccc(F)c3)nc12 (2 µM),inactive: 0,inactive: 0,inactive: 0,inactive: 0,inactive: 0,inactive: 0,inactive: 0,inactive: 0,inactive: 0,inactive: 0

# — the supplement of paper PMC12823440, “Inhibitors supercharge kinase turnover through native proteolytic circuits” (Nature, 2025)
